Experimental data as given in PubChem BioAssay AID1487 (National Center for Advancing Translational Sciences (NCATS), 2009).
This is one part of the list. Further columns of the screen follow, without active or inactive calls. The list favours compounds with an active or inconclusive main result. Potencies come from curve fits of mixed quality, noted in brackets.

Assay: qHTS Assay for Modulators of Lamin A Splicing
Details: HeLa LMNA splicing GFP/RFP minigene ratio, 48 h
Summary of the method: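 Read-out is the ratio of GFP to DsRed2 object intensity, acquired by 488 nm laser-scanning cytometry on HeLa lamin A-EGFP minigene reporter cells. Compound incubation 48 hrs at 37 °C in Opti-MEM with 2% FBS; DMSO 0.5% final.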

[1] = measured here: GFP splicing reporter channel
[2] = measured here: RFP viability control channel

| SMILES | AC50 [1] | AC50 [2] |
| --- | --- | --- |
| O=C(Nc1ccc2nc3n(c(=O)c2c1)CCCC3)c1cc([N+](=O)[O-])ccc1F | 35.5 µM [falling, single point] | 12.6 µM [falling, partial curve] |
| COc1cc2nc(CN3CCN(c4ncc(C(F)(F)F)cc4Cl)CC3)[nH]c(=O)c2cc1OC | 0.501 µM [falling, partial curve] | 0.398 µM [falling, partial curve] |
| Fc1ccc(-c2nc3cnccn3c2NC2CCCC2)cc1 | 5.62 µM [rising, single point] |  |
| Cc1cc(S(=O)(=O)N2CCN(c3ccccc3C)CC2)ccc1F |  | 14.1 µM [rising, single point] |
| Cc1ccc(Cc2cnc(N3C(=N)SC(c4ccccc4)C3=O)s2)cc1 (centres undefined) |  | 14.1 µM [rising, partial curve] |
| Cc1ccc(-n2nnnc2-c2cnc(N3CCCC3)nc2C(F)(F)F)cc1 | 2.24 µM [rising, full curve, poor fit] | 7.94 µM [rising, partial curve] |
| CCN(CCn1cccn1)C(=O)CCc1nnc(CCCc2ccccc2)o1 |  | 0.01 µM [falling, full curve, poor fit] |
| Clc1ccc(SCc2cc(N3CCOCC3)nc(-c3ccccn3)n2)cc1 | 35.5 µM [rising, single point] | 14.1 µM [rising, partial curve] |
| O=C(CON=C1c2ccccc2-c2ccccc21)NC12CC3CC(CC(C3)C1)C2 | 31.6 µM [rising, single point] | 31.6 µM [rising, single point] |
| O=C(NCCn1ccc2ccccc21)C1CCCCC1 |  | 35.5 µM [rising, single point] |
| COc1ccc(C2C3=C(OC(C)=O)c4ccccc4C3=Nc3c2c(=O)n(C)c(=O)n3C)cc1 (centres undefined) | 20 µM [rising, partial curve] |  |
| COc1cc(C(=O)Oc2ccccc2/C=N/NC(=O)c2ccc(Cl)cc2Cl)cc(OC)c1OC |  | 17.8 µM [rising, single point] |
| CCNC(=O)C1=C(O)c2sccc2N(C)S1(=O)=O |  | 0.02 µM [falling, full curve, poor fit] |
| COc1ccc(CCN2C(=O)c3[nH]nc(-c4ccccc4O)c3C2c2ccc(C)cc2)cc1OC (centres undefined) |  | 35.5 µM [rising, single point] |
| CC(=O)N1CCCc2cc(S(=O)(=O)N(CC(C)C)CC(C)C)ccc21 | 28.2 µM [rising, single point] | 35.5 µM [rising, single point] |
| Cc1ccc(-n2nnnc2SCC(=O)N2CCc3ccccc3C2)c(C)c1 |  | 35.5 µM [rising, single point] |
| O=C(N/N=C/c1c(O)ccc2ccccc12)c1cccc(C(F)(F)F)c1 |  | 11.2 µM [rising, partial curve] |

| SMILES | AC50 [1] | AC50 [2] |
| --- | --- | --- |
| O=C(c1ccc2c(=O)n(-c3ccccc3)c(=O)[nH]c2c1)N1CCN(c2ccc(F)cc2)CC1 | 14.1 µM [rising, partial curve] | 14.1 µM [rising, partial curve] |
| CC(C)COc1ccc2[nH]c3c(c2c1)CCCC3=O |  | 3.16 µM [falling, full curve] |
| CCN1C(=O)/C(=C2/C(=O)N3c4c(cc(OC(C)=O)cc42)C(C)=CC3(C)C)SC1=S | 0.282 µM [rising, full curve, poor fit] | 0.112 µM [rising, full curve, poor fit] |
| CCc1n[nH]c(=S)n1N=C1CCC(C)CC1 (centres undefined) |  | 35.5 µM [falling, partial curve, poor fit] |
| CCN1C(=O)N(C)[C@@H](c2ccccc2)C(C(C)=O)=C1C | 0.158 µM [falling, full curve, poor fit] | 0.158 µM [falling, full curve] |
| CCC1CCCCN1C(=O)c1ccc(OC2CCN(C(=O)C3CC3)CC2)cc1 (centres undefined) |  | 3.98 µM [rising, partial curve] |
| O=C(Cc1cccs1)Nc1cc(SCCO)cc([N+](=O)[O-])c1 | 10 µM [rising, partial curve] | 14.1 µM [rising, single point] |
| N#Cc1c(NC(=O)CSc2ncc(-c3ccccc3)n2CC2CCCO2)sc2c1CCCC2 (centres undefined) | 14.1 µM [rising, single point] | 15.8 µM [rising, partial curve] |
| CC1C(=O)N2CCCc3cc(S(=O)(=O)Nc4ccc(Br)cc4F)cc1c32 (centres undefined) | 0.0631 µM [rising, full curve, poor fit] |  |
| CSc1ccc2c(c1)[C@H](N1CCN(C)CC1)Cc1ccccc1S2 | 7.08 µM [falling, partial curve, poor fit] |  |
| CNC(=S)Nc1ccc(-c2nc3ccc(C)cc3s2)cc1 | 28.2 µM [rising, single point] | 35.5 µM [rising, single point] |
| CC(C)[C@@H]1NC(=O)N(c2ccc(Oc3ccccc3)cc2)C1=O | 14.1 µM [rising, single point] | 35.5 µM [rising, single point] |
| O=C(Nn1c(SCc2ccc([N+](=O)[O-])cc2)nc2ccccc2c1=O)c1ccc(F)cc1 |  | 8.91 µM [rising, partial curve] |
| O=C(Cn1c(=O)oc2cc(S(=O)(=O)NCc3ccccc3)ccc21)N(CCO)Cc1ccccc1 | 0.708 µM [rising, full curve, poor fit] |  |
| CN(C)S(=O)(=O)c1cccc(NC(=O)CCSc2ccc(Cl)cc2)c1 | 12.6 µM [rising, partial curve] | 15.8 µM [rising, partial curve] |
| CC1CCCN(C(=O)C2CCN(CCCc3ccccc3)CC2)C1 (centres undefined) | 5.62 µM [rising, single point] |  |
| O=C(Cc1ccc(Cl)cc1)Nc1ccc(S(=O)(=O)Nc2cnc3ccccc3n2)cc1 | 0.00794 µM [rising, full curve, poor fit] | 0.01 µM [rising, full curve] |

Three compounds already listed, arranged by length of the SMILES, rising:

| SMILES | AC50 [1] | AC50 [2] |
| --- | --- | --- |
| CC(C)COc1ccc2[nH]c3c(c2c1)CCCC3=O |  | 3.16 µM [falling, full curve] |
| CCN1C(=O)/C(=C2/C(=O)N3c4c(cc(OC(C)=O)cc42)C(C)=CC3(C)C)SC1=S | 0.282 µM [rising, full curve, poor fit] | 0.112 µM [rising, full curve, poor fit] |
| O=C(c1ccc2c(=O)n(-c3ccccc3)c(=O)[nH]c2c1)N1CCN(c2ccc(F)cc2)CC1 | 14.1 µM [rising, partial curve] | 14.1 µM [rising, partial curve] |
